Drawing on the supplement of paper PMC12819154, “High-throughput peptide-centric local stability assay extends protein–ligand identification to membrane proteins, tissues and bacteria” (Nature Structural & Molecular Biology, 2025), this text covers log2 fold change for five targets.

Sequences of proteins named here, by UniProt entry; tags and fusion partners are left off. A change or cut given only in a name is not applied to a line headed by its entry.
UniProt Q9JHL1: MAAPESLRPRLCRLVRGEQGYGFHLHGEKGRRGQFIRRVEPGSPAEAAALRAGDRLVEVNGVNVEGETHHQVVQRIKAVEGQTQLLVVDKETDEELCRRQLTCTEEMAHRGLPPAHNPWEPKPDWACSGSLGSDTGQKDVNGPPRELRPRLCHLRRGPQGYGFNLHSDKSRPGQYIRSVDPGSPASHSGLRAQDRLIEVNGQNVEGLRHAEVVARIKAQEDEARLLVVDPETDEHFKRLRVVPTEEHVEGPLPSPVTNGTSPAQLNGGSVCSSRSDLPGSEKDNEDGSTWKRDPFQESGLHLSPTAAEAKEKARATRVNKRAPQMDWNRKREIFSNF
UniProt Q9JIY2: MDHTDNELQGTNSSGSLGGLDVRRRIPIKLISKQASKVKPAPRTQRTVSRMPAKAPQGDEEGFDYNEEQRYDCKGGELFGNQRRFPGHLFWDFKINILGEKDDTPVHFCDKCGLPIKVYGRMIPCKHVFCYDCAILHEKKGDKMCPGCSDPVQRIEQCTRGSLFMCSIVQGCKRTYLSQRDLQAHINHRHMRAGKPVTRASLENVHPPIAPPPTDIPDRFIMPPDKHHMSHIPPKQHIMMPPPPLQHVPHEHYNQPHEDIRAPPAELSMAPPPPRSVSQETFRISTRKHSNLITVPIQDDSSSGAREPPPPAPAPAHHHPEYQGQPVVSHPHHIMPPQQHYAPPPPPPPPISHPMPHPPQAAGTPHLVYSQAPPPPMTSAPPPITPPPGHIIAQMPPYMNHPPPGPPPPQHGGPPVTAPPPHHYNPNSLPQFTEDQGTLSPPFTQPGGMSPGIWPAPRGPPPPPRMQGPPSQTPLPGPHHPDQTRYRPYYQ
UniProt Q9JJ48: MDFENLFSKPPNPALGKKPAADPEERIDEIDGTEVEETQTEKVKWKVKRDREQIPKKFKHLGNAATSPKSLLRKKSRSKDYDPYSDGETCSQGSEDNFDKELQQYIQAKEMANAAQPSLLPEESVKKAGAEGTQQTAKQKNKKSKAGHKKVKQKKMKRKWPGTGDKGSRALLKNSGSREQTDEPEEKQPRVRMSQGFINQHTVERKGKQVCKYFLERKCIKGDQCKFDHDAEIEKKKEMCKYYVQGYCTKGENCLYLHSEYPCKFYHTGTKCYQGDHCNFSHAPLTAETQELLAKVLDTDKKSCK
UniProt Q9JJB9: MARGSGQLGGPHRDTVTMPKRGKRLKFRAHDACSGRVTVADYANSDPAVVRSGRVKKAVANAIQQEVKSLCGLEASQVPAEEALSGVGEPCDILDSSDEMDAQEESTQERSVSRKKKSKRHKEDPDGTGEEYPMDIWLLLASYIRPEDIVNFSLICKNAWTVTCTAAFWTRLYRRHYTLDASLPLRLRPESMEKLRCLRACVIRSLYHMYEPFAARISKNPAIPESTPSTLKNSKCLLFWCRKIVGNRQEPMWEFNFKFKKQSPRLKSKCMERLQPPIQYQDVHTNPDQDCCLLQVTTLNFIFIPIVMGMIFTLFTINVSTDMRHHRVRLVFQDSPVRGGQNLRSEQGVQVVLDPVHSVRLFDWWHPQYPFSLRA
UniProt Q9JI39: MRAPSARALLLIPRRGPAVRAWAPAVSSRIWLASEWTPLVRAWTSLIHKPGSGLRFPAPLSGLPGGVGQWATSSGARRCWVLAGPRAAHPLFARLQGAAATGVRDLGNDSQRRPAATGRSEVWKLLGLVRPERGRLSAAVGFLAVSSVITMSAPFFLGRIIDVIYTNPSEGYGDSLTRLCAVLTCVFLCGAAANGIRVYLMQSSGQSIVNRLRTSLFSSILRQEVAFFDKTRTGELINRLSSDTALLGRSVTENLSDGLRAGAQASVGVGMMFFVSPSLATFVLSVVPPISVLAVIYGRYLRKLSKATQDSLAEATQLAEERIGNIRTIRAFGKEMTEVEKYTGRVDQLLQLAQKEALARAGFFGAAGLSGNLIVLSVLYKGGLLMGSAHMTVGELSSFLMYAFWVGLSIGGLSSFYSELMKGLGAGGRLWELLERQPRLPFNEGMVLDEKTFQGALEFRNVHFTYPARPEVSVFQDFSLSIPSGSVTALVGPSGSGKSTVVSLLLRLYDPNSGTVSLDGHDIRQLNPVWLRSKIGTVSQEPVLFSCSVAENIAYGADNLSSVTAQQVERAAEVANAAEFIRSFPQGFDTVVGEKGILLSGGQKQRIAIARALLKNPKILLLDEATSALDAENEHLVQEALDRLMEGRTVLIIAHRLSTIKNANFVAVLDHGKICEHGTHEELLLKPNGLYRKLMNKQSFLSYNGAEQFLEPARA

Some of the results follow. Small differences around the control level are noise.

Compound in the test: CN[C@@H]1C[C@H]2O[C@@](C)([C@@H]1OC)n1c3ccccc3c3c4c(c5c6ccccc6n2c5c31)C(=O)NC4 [staurosporine]
Briefly: log2 fold change of tryptic peptide abundance, ligand vs vehicle (limited proteolysis) (log2 ratio); higher = more trypsin-susceptible (destabilized). The conditions noted are these: ligand concentration: 20 uM; sample: mouse liver crude lysate; replicate design: treated separately.
“UniProt Q9JHL1 (peptide sequence: SDLPGSEKDNEDGSTWK, peptide start residue: 275)”: the log2 fold change is -0.196.

As for “UniProt Q9JIY2 (peptide sequence: SVSQETFR, peptide start residue: 276)”, the log2 fold change was -0.191.

On to “UniProt Q9JJ48 (peptide sequence: MSQGFINQHTVER, peptide start residue: 193)”, for which the log2 fold change came out at 0.21.

Regarding “UniProt Q9JJB9 (peptide sequence: AVANAIQQEVK, peptide start residue: 58)”, the log2 fold change came out at 0.202.

Take “UniProt Q9JI39 (peptide sequence: GILLSGGQK, peptide start residue: 596)”: the log2 fold change was -0.479.
